According to the supplement of paper PMC8846439:
Where a name gives a salt, the structure may show the parent alone. This is one part of the list. Most values come without repeats; read them as rough.

tested on: Trypanosoma brucei brucei bloodstream form L262P (kDNA-independent); assay: viability Z-score (nuclei count per well, median-polish normalised, relative to plate distribution); higher = more viable parasites (negative = growth inhibition); conditions: 4 days; compound concentration: 10 µM (some Prestwick/PKE rows may be 1 µM / not distinguished)

| Structure (SMILES) | viability Z-score |
| --- | --- |
| O=C(OC)[C@]1(NC(O1)=N/C2=C/C=C(/[F])C=C2)C([F])([F])[F] | -1.32 |
| N#C/C1=C(\NC(=O)OC)[S]/C=C1/C=2/C=C(/C)C=CC=2C | -4.01 |
| CC(C)C[C@@H](C=O)NC(=O)[C@H](CC(C)C)NC(=O)[C@H](CC(C)C)NC(=O)OCc1ccccc1 | -5.54 |
| CCCc1cnc(N2CCN(S(=O)(=O)c3cccs3)CC2)nc1 | -5.13 |
| Cc1ccc([C@H]2Nc3ccccc3NC3=C2C(=O)C[C@H](c2ccccc2)C3)o1 | -5.37 |
| O=C1NC(=NC(O)=C1NC(=O)C)[S]CC(=O)N([C@@]2([H])CCCCC2)[C@@]3([H])CCCCC3 | -1.1 |
| N#C/C1=C(/N=C(/N)C(C#N)=C1/C3=C/C=2OCOC=2C=C3)OC(C)(C)[H] | -2.02 |
| CCN(CC)C(=S)SSC(=S)N(CC)CC [Disulfiram] | -5.7 |
| O=C(COC=1C=CC([Cl])=CC=1[Br])N(C)C/C2=C/C=CC=C2 | -2.66 |
| CO[C@@H]1[C@H](N(C)C(=O)c2ccccc2)C[C@H]2O[C@]1(C)n1c3ccccc3c3c4c(c5c6ccccc6n2c5c31)C(=O)NC4 | -3.69 |
| O=C(O)[C@@]([H])(N/C1=N/C=NC=2C=CC=CC1=2)[C@@](C)([H])CC | -4.24 |
| OC=2N=C1C=CC=CC1=NC=2/C3=C/NC=4C=CC=CC3=4 | -3.29 |
| O=C(N[C@@](C)([H])C1=CC=CC=C1)[C@@]2([H])CCC2 | -5.89 |
| O=C(C=1/C=C(/[Cl])C=CC=1OC)N(C)C/C2=C/C=CC=C2 | -1.41 |
| C/C(=N/N=C1\N=C(O)[C@@H](CC(=O)O)S1)C(C)C | -1.91 |
| CCCN(CCC)S(=O)(=O)c1ccc(C(=O)O/N=C(\C)c2ccc(OC)c(CSc3ccccn3)c2)cc1 | -1.35 |
| O=C(NCCC[S]CCCC)C3([H])CCN(CC=1N=C(OC=1C)C=2/C=C(/OC)C(=CC=2)OC)CC3 | -3.08 |
| N#C/C(=C\N1CCc2ccccc21)S(=O)(=O)Cc1ccco1 | -5 |
| C=1(N=CC=CN=1)[S]CCO/C3=C/C=C(/OC/C2=C/C=CC=C2)C=C3 | -2.96 |
| O=C(NCC/C1=C/CCCC1)C=3[S]C=2C=CC=CC=2C=3[Cl] | -3.33 |

| Structure (SMILES) | viability Z-score |
| --- | --- |
| CC(C)NCC(O)COc1cccc2ccccc12 [(R)-Propranolol hydrochloride] | -2.52 |
| O=C(NN1C(C)=C/C=C1/C)C2=CC([Cl])=CC=C2 | -2.74 |
| O=[N+]([O-])c1cccc(NCc2ccccc2Cl)c1 | -2.67 |
| O=C(NC/C2=N/C=1C=CC=CC=1N2C)C(C)(C)C | -4.69 |
| CC(C)=CCC/C(C)=C/C=N/NC(=O)c1nnn(-c2nonc2N)c1-c1cccc([N+](=O)[O-])c1 | -2.58 |
| CSc1sc(-c2ccon2)c(-c2ccccc2)c1C#N | -2.95 |
| CCN[C@H]1C[C@H](C)S(=O)(=O)c2sc(S(N)(=O)=O)cc21 [Dorzolamide hydrochloride] | -2.64 |
| CN(C)C(=O)C(CCN1CCC(O)(c2ccc(Cl)cc2)CC1)(c1ccccc1)c1ccccc1 [Loperamide hydrochloride] | -3.06 |
| CN(C)NC(=O)C[C@H](C(=O)O)n1ccnc1 | -4.17 |
| O=C(N/C1=N/C=CC(C)=C1)CO/C2=C/C=C(/[Cl])C=C2 | -3.05 |
| O=[N+]([O-])c1cccc([C@@H]2C=C(c3ccc(Br)cc3)Nc3ncnn32)c1 | -1.4 |
| O=[S](=O)(NC=1C=CC=C2C=NNC=12)C=3/C=C(/OC)C([F])=CC=3 | -1.22 |
| O=C1OC(O)=CN(N1N/C2=N/C=CC=C2)C3=NC=CC=C3 | -2.65 |
| O=C(NC/C2=C/C=1OCOC=1C=C2)C34CC5([H])CC([H])(C3)C[C@]([H])(C4)C5 | -6.1 |
| CN(C)S(=O)(=O)c1ccc(-c2cc(C(F)(F)F)on2)s1 | -3.09 |
| O=C(N/C2=C/C=C(/CN1/N=C(/C)C=C1C)C=C2)C3=CC(=NC=4C=CC=CC3=4)C=5/C=C(/C)C(C)=CC=5 | -3.54 |
| N=C1C(=C([S][C@@]1(C(=O)OCC)C(=C)O)N/C2=C/C=CC=C2)[P](=O)(OCC)OCC | -7.2 |
| C[C@H](NCCCCCCN[C@H](C)[C@H]1COc2ccccc2O1)[C@@H]1COc2ccccc2O1 | -2.29 |
| OC(c1cc(C(F)(F)F)nc2c(C(F)(F)F)cccc12)C1CCCCN1 (centres undefined) [Mefloquine hydrochloride] | -4.5 |

An excerpt from above in order of molar mass, rising:

| Structure (SMILES) | viability Z-score |
| --- | --- |
| CCN(CC)C(=S)SSC(=S)N(CC)CC [Disulfiram] | -5.7 |
| N#C/C1=C(/N=C(/N)C(C#N)=C1/C3=C/C=2OCOC=2C=C3)OC(C)(C)[H] | -2.02 |
| O=C(COC=1C=CC([Cl])=CC=1[Br])N(C)C/C2=C/C=CC=C2 | -2.66 |
| O=C1NC(=NC(O)=C1NC(=O)C)[S]CC(=O)N([C@@]2([H])CCCCC2)[C@@]3([H])CCCCC3 | -1.1 |
| N=C1C(=C([S][C@@]1(C(=O)OCC)C(=C)O)N/C2=C/C=CC=C2)[P](=O)(OCC)OCC | -7.2 |
| C[C@H](NCCCCCCN[C@H](C)[C@H]1COc2ccccc2O1)[C@@H]1COc2ccccc2O1 | -2.29 |
| O=C(NCCC[S]CCCC)C3([H])CCN(CC=1N=C(OC=1C)C=2/C=C(/OC)C(=CC=2)OC)CC3 | -3.08 |
| CO[C@@H]1[C@H](N(C)C(=O)c2ccccc2)C[C@H]2O[C@]1(C)n1c3ccccc3c3c4c(c5c6ccccc6n2c5c31)C(=O)NC4 | -3.69 |
